Measured values published in publication PMC9965400.
No constants are given. Whether binding was seen depends on the method and setting. Binding seen in cells or lysates may run through a third protein. These calls come from enrichment with a bait or labelling near it, and not all partners need be listed.

The chains behind the UniProt entries cited, without tags or fusion partners.
UniProt P26196: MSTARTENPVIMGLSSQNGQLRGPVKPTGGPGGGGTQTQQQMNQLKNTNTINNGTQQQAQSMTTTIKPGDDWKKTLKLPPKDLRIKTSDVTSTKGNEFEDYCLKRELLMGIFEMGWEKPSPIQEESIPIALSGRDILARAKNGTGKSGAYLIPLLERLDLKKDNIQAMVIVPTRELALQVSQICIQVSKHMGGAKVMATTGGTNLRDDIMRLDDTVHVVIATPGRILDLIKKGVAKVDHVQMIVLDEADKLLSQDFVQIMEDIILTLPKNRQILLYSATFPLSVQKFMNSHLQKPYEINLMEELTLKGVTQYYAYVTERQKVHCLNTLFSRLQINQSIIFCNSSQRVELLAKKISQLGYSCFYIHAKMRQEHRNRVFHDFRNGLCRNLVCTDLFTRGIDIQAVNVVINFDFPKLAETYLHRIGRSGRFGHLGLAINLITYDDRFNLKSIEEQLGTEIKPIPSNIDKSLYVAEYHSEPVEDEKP

Biological target: DDX6 (human (endogenous in HeLa)) (UniProt P26196)
Experiment: affinity purification with mass spectrometry; anti-DDX6 immunoprecipitation from a nuclear extract (HeLa); SDS-PAGE, silver staining, six regions of the gel cut out, LC-MS/MS

B1: adenosine deaminases that act on RNA 1 (ADAR1) (protein, UniProt P55265-5 1-931)
chain: MAEIKEKICDYLFNVSDSSALNLAKNIGLTKARDINAVLIDMERQGDVYRQGTTPPIWHLTDKKRERMQIKRNTNSVPETAPAAIPETKRNAEFLTCNIPTSNASNNMVTTEKVENGQEPVIKLENRQEARPEPARLKPPVHYNGPSKAGYVDFENGQWATDDIPDDLNSIRAAPGEFRAIMEMPSFYSHGLPRCSPYKKLTECQLKNPISGLLEYAQFASQTCEFNMIEQSGPPHEPRFKFQVVINGREFPPAEAGSKKVAKQDAAMKAMTILLEEAKAKDSGKSEESSHYSTEKESEKTAESQTPTPSATSFFSGKSPVTTLLECMHKLGNSCEFRLLSKEGPAHEPKFQYCVAVGAQTFPSVSAPSKKVAKQMAAEEAMKALHGEATNSMASDNQPEGMISESLDNLESMMPNKVRKIGELVRYLNTNPVGGLLEYARSHGFAAEFKLVDQSGPPHEPKFVYQAKVGGRWFPAVCAHSKKQGKQEAADAALRVLIGENEKAERMGFTEVTPVTGASLRRTMLLLSRSPEAQPKTLPLTGSTFHDQIAMLSHRCFNTLTNSFQPSLLGRKILAAIIMKKDSEDMGVVVSLGTGNRCVKGDSLSLKGETVNDCHAEIISRRGFIRFLYSELMKYNSQTAKDSIFEPAKGGEKLQIKKTVSFHLYISTAPCGDGALFDKSCSDRAMESTESRHYPVFENPKQGKLRTKVENGEGTIPVESSDIVPTWDGIRLGERLRTMSCSDKILRWNVLGLQGALLTHFLQPIYLKSVTLGYLFSQGHLTRAICCRVTRDGSAFEDGLRHPFIVNHPKVGRVSIYDSKRQSGKTKETSVNWCLADGYDLEILDGTRGTVDGPRNELSRVSKKNIFLLFKKLCSFRYRRDLLRLSYGEAKKAARDYETAKNYFKKGLKDMGYGNWISKPQEEKNFYLCPV
Q: With B1 as the binder, how does the binding read?
A: binds
